The text below walks through data of publication doi:10.1101/2025.01.05.631328 (bioRxiv, 2025).

Chains of the proteins cited; added tags and fusions are not shown.
UniProt P09874: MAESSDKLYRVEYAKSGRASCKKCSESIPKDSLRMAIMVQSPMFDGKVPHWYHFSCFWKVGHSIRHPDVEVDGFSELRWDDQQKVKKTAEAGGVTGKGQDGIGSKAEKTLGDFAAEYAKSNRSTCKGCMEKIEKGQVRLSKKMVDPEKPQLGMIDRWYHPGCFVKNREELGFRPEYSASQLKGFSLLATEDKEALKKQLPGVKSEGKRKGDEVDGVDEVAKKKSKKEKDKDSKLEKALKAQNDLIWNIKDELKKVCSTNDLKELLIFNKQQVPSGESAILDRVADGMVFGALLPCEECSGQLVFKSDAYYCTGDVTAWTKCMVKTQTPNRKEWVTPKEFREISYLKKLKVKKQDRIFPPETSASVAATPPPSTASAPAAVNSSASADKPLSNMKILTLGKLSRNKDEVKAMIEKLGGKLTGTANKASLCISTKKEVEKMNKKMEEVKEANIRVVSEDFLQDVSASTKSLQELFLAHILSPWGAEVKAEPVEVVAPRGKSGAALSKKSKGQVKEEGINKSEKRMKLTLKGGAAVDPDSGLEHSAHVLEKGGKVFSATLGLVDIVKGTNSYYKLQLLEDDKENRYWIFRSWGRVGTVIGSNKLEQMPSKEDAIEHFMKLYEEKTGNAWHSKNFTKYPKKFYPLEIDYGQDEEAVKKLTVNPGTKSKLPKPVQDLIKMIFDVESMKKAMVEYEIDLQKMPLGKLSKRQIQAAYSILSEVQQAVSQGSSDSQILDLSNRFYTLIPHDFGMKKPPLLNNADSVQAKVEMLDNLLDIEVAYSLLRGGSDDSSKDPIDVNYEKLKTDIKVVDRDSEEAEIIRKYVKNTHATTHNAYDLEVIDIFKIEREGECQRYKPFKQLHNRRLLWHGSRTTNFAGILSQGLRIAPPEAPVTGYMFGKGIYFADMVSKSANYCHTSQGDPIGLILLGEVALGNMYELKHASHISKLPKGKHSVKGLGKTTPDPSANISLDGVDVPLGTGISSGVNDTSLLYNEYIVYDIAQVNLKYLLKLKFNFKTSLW

These are yes or no findings as the source states them, for the method shown. Binding seen in cells or lysates may run through a third protein. A yes stands for co-enrichment or nearness to the bait. Other partners may have been found. Where a sequence is shown, tags or fusion partners need not be part of it.

The target of assay [1] is T1, Flag-MISO (Mitochondrial Inner membrane Subdomain Organizer, human C3orf33, long isoform) (human) (UniProt Q6P1S2).
T1 sequence: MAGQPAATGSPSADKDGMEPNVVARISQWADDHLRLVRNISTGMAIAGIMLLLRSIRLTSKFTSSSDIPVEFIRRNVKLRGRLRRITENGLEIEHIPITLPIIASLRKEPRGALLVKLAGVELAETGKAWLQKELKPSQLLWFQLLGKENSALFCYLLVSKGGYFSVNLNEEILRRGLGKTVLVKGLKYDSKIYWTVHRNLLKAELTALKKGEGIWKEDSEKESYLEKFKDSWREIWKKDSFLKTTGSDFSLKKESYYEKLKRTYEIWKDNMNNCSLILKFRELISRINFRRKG
As to the kind of experiment: affinity purification with mass spectrometry.

Assay [2] deals with T2, MISO-Flag (Mitochondrial Inner membrane Subdomain Organizer, human C3orf33, long isoform), in HEK293T (human) (UniProt Q6P1S2).
T2 sequence: T1 sequence
As to the kind of experiment: affinity purification with mass spectrometry.

Take “poly ADP-ribose polymerase 1 (PARP1) (from UniProt P09874 1-1014)”: the binding result in assay [1] and in assay [2] was “binds” in each case.

B1: single-stranded DNA-binding protein 1 (SSBP1) (protein, UniProt Q04837 17-148)
chain: ESETTTSLVLERSLNRVHLLGRVGQDPVLRQVEGKNPVTIFSLATNEMWRSGDSEVYQLGDVSQKTTWHRISVFRPGLRDVAYQYVKKGSRIYLEGKIDYGEYMDKNNVRRQATTIIADNIIFLSDQTKEKE
On to B1, for which the binding result in assay [1] and in assay [2] was “binds” in each case.
